A word on the IC50: it is the concentration needed to halve the response being measured.

The text below walks through data of paper PMC10180490, “New Indazol-Pyrimidine-Based Derivatives as Selective Anticancer Agents: Design, Synthesis, and In Silico Studies” (Molecules, 2023).

Data set [1] relates to breast cancer cells (MCF-7). The experiment in a line: MTT cytotoxicity assay, MCF-7. Conditions: Homo sapiens, MCF7, 48 h, read-out: Cytotoxicity IC50 MCF-7. As to the method: (§1) All of the synthesized compounds were screened for their cytotoxic effect against three different human cancer cells, namely breast cancer cells (MCF-7), lung cancer cells (A549), and colorectal adenocarcinoma cells (Caco2), using the MTT cytotoxic assay. […] Then, 3-[4,5-dimethylthiazol-2-yl]-2,5-diphenyl tetrazolium bromide (MTT) was added.
For orientation: Tetrazolium assays rely on reduction of a dye to a coloured formazan, in cell work by metabolically active cells.

The test system of data set [2] is colorectal adenocarcinoma cells (Caco2). The experiment in a line: MTT cytotoxicity assay, Caco2. The following applies: Homo sapiens, Caco-2, 48 h, read-out: Cytotoxicity IC50 Caco2. As to the method:
as §1

Data set [3] in a line: Cytotoxicity toward normal cells MCF-10a. It counts as cell-based, human. Conditions: human, Cytotoxicity IC50 MCF-10a.
Data set [4] deals with mammary gland epithelial cell line MCF-10a. In words: Cytotoxicity toward normal cells MCF-10a. The class given is cell-based, human.

`CN[C@@H]1C[C@H]2O[C@@](C)([C@@H]1OC)n1c3ccccc3c3c4c(c5c6ccccc6n2c5c31)C(=O)NC4` [Staurosporine, reference compound]: the IC50 amounted to 8.03 ± 0.38 µM in data set [1], 11.3 ± 0.56 µM in data set [2], 34.8 µM in data set [3] and 34.9 ± 1.73 µM in data set [4] (human). Besides, the “SI (selectivity index)” value in data set [4] (MCF-10a IC50 relative to MCF-7 IC50) was found to be 4.34.
